Our source for the binding values is article PMC2816689.

These are yes or no findings as the source states them, for the method shown. For some of these results: Binding seen in cells or lysates may run through a third protein. Some entries that bind do so weakly or less than the wild type. Tags and fused reporters may be left off the sequences shown.

The target of test [1] is wild-type myc-Rad3 (Rad3^ATR) (S. pombe) (UniProt Q02099). Put plainly: co-IP; anti-myc immunoprecipitation from S. pombe cell extracts (lysis buffer 2: 25mM Tris pH7.5, 100mM NaCl, 0.1% NP40, 1% Triton) of strains expressing YFP-Rad26 and myc-Rad3 or myc-Rad3-kdΔ; anti-GFP western blot. (In western blotting, separated proteins are transferred to a membrane and probed.)
Test [2] has as its target T1, myc-Rad3-kdΔ (truncated Rad3^ATR lacking the kinase domain) (S. pombe) (UniProt Q02099).
T1 sequence: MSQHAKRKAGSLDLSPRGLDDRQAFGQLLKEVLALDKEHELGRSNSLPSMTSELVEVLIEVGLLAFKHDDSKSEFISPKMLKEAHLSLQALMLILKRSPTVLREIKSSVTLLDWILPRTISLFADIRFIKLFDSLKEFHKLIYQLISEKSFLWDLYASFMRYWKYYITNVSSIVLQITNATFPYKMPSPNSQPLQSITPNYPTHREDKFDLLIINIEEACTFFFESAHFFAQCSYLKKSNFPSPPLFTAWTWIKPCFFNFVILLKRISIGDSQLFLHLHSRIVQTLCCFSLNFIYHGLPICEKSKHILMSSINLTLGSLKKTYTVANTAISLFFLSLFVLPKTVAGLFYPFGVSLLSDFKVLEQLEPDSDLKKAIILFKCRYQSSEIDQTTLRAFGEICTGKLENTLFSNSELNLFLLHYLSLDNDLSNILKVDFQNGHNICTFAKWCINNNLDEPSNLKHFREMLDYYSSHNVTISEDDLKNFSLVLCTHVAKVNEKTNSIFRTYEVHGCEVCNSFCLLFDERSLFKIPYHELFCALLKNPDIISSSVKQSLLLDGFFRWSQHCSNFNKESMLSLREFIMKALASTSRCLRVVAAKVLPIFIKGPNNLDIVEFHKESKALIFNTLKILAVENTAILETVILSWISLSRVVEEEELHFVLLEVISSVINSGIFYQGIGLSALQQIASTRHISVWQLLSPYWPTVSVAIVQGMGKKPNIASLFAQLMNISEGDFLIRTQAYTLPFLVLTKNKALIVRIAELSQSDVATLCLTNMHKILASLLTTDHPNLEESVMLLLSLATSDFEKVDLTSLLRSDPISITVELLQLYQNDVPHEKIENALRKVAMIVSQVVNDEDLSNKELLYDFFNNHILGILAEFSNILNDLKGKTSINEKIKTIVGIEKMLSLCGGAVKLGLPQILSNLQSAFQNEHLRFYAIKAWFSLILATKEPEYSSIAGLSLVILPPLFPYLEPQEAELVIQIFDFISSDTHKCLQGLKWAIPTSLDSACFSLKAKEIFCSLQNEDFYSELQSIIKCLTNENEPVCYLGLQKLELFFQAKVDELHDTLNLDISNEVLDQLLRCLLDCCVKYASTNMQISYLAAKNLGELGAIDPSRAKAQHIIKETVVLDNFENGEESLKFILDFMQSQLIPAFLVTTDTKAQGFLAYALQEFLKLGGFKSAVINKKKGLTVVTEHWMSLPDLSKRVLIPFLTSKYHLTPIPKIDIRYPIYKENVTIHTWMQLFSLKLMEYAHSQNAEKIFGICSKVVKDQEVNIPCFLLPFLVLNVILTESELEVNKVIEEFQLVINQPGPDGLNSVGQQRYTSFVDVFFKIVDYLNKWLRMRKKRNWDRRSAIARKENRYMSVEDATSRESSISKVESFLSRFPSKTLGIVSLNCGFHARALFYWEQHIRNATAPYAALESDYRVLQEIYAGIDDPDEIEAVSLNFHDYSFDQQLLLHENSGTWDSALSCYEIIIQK
The description is as above.

The target in test [3] is full-length Rad3 (Rad3+), two-hybrid fusion (S. pombe) (UniProt Q02099). Briefly: two-hybrid; GAL4-DBD and GAL4-AD plasmids in mated S. cerevisiae strains (…); growth on SD-HTL (-His) plates.
In test [4] the target is T2, C-terminal truncation of Rad3 (Rad3-kdΔ), two-hybrid fusion (S. pombe) (UniProt Q02099).
T2 sequence: T1 sequence
The test is described as above.

B1: YFP-Rad26 (Rad26^ATRIP) (protein, UniProt P36632 1-614)
chain: MMADESFDLESLGSDEIFEGVNLDELEQQAQTQVQAQSSQVVVPSEKQKQNLNLPNSYTNSSQKVRESTVNSQASLSSNDLRTELLIKSGENAILRANLLKQSEANNAALESLNNSIKQKQDEYQRKLEELKKEIEYAKTKSLFHEREAQDAIETMKKMKRDVKNSPIMKKSHEEDGDNKLLSSSDQLAKSTKHAAKNSPSKKKRKTSVATAEDASTDSVSSSIAISDASLSLSLMKDLLSLQKREDLYFSSRTLAYVFGGCMHSLETIEGEEEGECLFNNLKALIYSPDLSMDSSNYVQSVVQTSSSILNYSMKKLLYNASFAITSLFNALLILDPKSSTFIFQENVVSLISGFLLKEYEKSNFLDSKFYVLIDFLYLYLSIARESADDFANITKAVDPSLFESCIRVQNAPSLIKCGVCLIISSTTPSFCASVNLLNADDKSQESLMQLFTTMAHILVVTTRERINFPELNEWITLHRFVISFFTVFIQMSGNIGKEILKVCNPLIVCIGLAITWYHQQLLSSMYPQNECVEILVSLVRLLYILSSEDLSSKFMLAENALQPRFVYAIACCAFGDTEQKAFGNLGEEMYFLTTELLEVCVSPEELEQLYTNF
Take B1: the binding entry in test [1] and in test [2] was “binds” in each case.

B2: S. pombe Rad26, two-hybrid fusion (protein, UniProt P36632 1-614)
chain: B1 chain
B2: the binding entry in test [3] and in test [4] was “binds” throughout.
